Experimental data from publication PMC7866230.
No constants are given. Whether binding was seen depends on the method and setting. Binding seen in cells or lysates may run through a third protein. Some entries that bind do so weakly or less than the wild type.

Protein sequences, listed by entry. Tags and fused reporters are not part of them.
UniProt Q9QZL0: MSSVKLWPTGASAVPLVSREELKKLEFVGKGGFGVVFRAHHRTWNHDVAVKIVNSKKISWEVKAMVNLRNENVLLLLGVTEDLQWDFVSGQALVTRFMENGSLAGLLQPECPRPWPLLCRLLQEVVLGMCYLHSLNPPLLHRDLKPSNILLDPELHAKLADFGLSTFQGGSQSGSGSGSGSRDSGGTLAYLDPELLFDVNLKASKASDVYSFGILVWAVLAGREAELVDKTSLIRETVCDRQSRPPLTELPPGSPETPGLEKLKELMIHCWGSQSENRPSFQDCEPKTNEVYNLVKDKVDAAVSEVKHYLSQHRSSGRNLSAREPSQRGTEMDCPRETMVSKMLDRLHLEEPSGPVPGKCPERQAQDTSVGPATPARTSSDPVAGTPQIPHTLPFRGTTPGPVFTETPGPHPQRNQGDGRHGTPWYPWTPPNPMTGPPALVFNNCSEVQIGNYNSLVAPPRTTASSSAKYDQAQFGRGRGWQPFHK

Biological target: receptor-interacting protein 3 (mouse (endogenous in Balb/C liver)) (UniProt Q9QZL0)
Assay: co-IP; RIP3 immunoprecipitated (rabbit polyclonal anti-RIP3/RIP3K, protein A/G beads, overnight 4 °C) from 100 μg extract of liver homogenates of Balb/C mice treated with LPS and miR-675 or siCtrl; MLKL detected by Western blot

B1: Mixed Lineage Kinase Domain-Like Pseudokinase (protein, UniProt Q9D2Y4 1-472)
chain: MDKLGQIIKLGQLIYEQCEKMKYCRKQCQRLGNRVHGLLQPLQRLQAQGKKNLPDDITAALGRFDEVLKEANQQIEKFSKKSHIWKFVSVGNDKILFHEVNEKLRDVWEELLLLLQVYHWNTVSDVSQPASWQQEDRQDAEEDGNENMKVILMQLQISVEEINKTLKQCSLKPTQEIPQDLQIKEIPKEHLGPPWTKLKTSKMSTIYRGEYHRSPVTIKVFNNPQAESVGIVRFTFNDEIKTMKKFDSPNILRIFGICIDQTVKPPEFSIVMEYCELGTLRELLDREKDLTMSVRSLLVLRAARGLYRLHHSETLHRNISSSSFLVAGGYQVKLAGFELSKTQNSISRTAKSTKAERSSSTIYVSPERLKNPFCLYDIKAEIYSFGIVLWEIATGKIPFEGCDSKKIRELVAEDKKQEPVGQDCPELLREIINECRAHEPSQRPSVDGRSLSGRERILERLSAVEESTDKKV
  binding: binds
